# Measured values as given in PubChem BioAssay AID1671190 (National Center for Advancing Translational Sciences (NCATS), 2021).
# Protein sequences, listed by entry. Tags and fused reporters are not part of them. Lines headed by an entry give the natural chain unless they say otherwise; changes in a name come on top.
# UniProt P18054: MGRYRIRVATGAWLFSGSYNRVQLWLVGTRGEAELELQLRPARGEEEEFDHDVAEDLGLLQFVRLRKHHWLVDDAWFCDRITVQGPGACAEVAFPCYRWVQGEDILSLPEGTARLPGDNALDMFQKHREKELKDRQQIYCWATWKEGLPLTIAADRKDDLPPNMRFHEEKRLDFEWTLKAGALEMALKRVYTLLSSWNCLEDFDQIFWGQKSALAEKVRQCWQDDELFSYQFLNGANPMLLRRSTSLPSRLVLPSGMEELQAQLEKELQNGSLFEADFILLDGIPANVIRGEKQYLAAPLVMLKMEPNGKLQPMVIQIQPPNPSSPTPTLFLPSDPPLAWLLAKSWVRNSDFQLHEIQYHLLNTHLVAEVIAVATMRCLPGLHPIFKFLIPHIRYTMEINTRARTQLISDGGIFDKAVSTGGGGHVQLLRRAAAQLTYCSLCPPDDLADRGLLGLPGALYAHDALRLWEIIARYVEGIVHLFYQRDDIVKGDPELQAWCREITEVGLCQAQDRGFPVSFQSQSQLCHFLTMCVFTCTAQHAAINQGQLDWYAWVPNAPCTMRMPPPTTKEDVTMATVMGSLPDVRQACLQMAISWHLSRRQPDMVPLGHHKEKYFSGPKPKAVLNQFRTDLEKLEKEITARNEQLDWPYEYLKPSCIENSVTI
# The whole screen tested about 580,000 compounds, of which about 6,100 (1.1%) were called active. Inconclusive means that the source gave no clear call. Such entries were picked first, then a sample of the others. Calls follow the shape of the dose curve; as a rule, active = well fitted inhibition curve with a large enough effect; inconclusive = small, poorly fitted or top-dose-only effect, or another doubt; inactive = no such curve, though single readings can be large or run the other way. Potencies beside an inconclusive call are fits to weak or partial responses and may not hold up. Where a structure was tested more than once in an assay, its records may differ in their call.
# Target: Polyunsaturated fatty acid lipoxygenase ALOX12 (Homo sapiens) (UniProt P18054)
# Test: Primary qHTS assay for inhibitors of human arachidonate 12S-lipoxygenase (ALOX12): Round 2
# Details: purified 12hLO, xylenol orange hydroperoxide absorbance; series mostly up to 108 µM
# Procedure, shortened: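 Purified human 12hLO at 150 nM in 25 mM Hepes, 0.01% Triton X-100, pH 7.0, preincubated 15 min at room temperature with compound. Reaction started with 40 uM arachidonic acid, 30 min at room temperature. Hydroperoxide measured by Fe-xylenol orange, 573/405 nm absorbance ratio.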
# Potency is read from the fitted curve at half-maximal effect.
row,Structure (SMILES),Potency
1,O=C(c1ccc(Cl)cc1)c1cccc(O)c1,"inconclusive: 50.1 µM [inhibitor, partial curve, poor fit]"
2,O=C(C1CCCC1)N1CC2(CCCN(C3CCCCC3)C2)Cc2ccccc21 (stereo not given),"inconclusive: 89.1 µM [inhibitor, single point]"
3,Cc1cccc(NC(=O)CCC(=O)N/N=C/c2ccncc2)c1,inactive
4,CCCN1CCN(C(=O)c2ccc(CS(=O)c3ccc(Cl)cc3)o2)CC1 (stereo not given),inactive
5,Cc1oc(C(C)(C)C)cc1C(=O)NC(Cc1ccccc1)C(=O)O (stereo not given),inactive
6,CCc1cccc(NC(=O)Nc2ccc3c(c2)N(C)C(=O)c2ccccc2S3)c1,"inconclusive: 63.1 µM [inhibitor, partial curve, poor fit]"
7,COc1ccc(N(C(=O)CNC(=O)c2cccs2)C(C(=O)NC2CCCC2)c2cccnc2)cc1 (stereo not given),inactive
8,COc1ccc(NS(=O)(=O)c2cc3[nH]c(=O)c(=O)[nH]c3cc2C)cc1Cl,"inconclusive: 79.4 µM [inhibitor, partial curve, poor fit]"
9,CCn1c(COc2ccccc2C)nnc1SCC(=O)Nc1ccc2c(c1)OCCO2,inactive
10,O=C(CN(C(=O)c1csnn1)c1cccc(C(F)(F)F)c1)NCc1ccc(F)cc1,"inconclusive: 100 µM [inhibitor, partial curve, poor fit]"
11,CCOc1cc(/C=C/C(=O)c2ccc(O)cc2)ccc1OCC(=O)N(C)C,inactive
12,Cc1ccc(NC(=O)C(C)OC(=O)CCC2CCCCC2)cc1 (stereo not given),"inconclusive: 4.47 µM [inhibitor, full curve, poor fit]"
13,Cc1cc(=O)n(Nc2ccccc2)c(O)c1C#N,"inconclusive: 44.7 µM [inhibitor, partial curve, poor fit]"
14,N#Cc1c(N)n[nH]c1CCCNc1nc(-c2ccccc2)nc2ccccc12,inactive
15,Cc1cccc(OCC(=O)N2CCC3(CC2)NC(=O)N(Cc2ccccc2)C3=O)c1,inactive
16,COc1ccc(-n2nc(C(=O)N3CCC(C#N)CC3)c3c4ccccc4n(C)c3c2=O)cc1,inactive
17,COc1ccccc1-c1nccc(NC2CCNCC2)n1,"inconclusive: 7.08 µM [inhibitor, full curve, poor fit]"
18,CCN(CC)CCOc1ccc2c(c1)C(=O)c1cc(OCCN(CC)CC)ccc1-2,"inconclusive: 7.94 µM [inhibitor, full curve, poor fit]"
19,CC1=C(C(=O)O)N2C(=O)C(NC(=O)c3c(F)cccc3F)C2SC1 (stereo not given),"inconclusive: 89.1 µM [inhibitor, partial curve, poor fit]"
20,CCN(CC)c1ccc(NC(=O)COc2ccc3c(=O)c(Oc4ccccc4F)c(C)oc3c2)cc1,"inconclusive: 25.1 µM [inhibitor, partial curve, poor fit]"

# Given with bars between the fields: 2 of the compounds above
row | Structure (SMILES) | Potency
3 | Cc1cccc(NC(=O)CCC(=O)N/N=C/c2ccncc2)c1 | inactive
4 | CCCN1CCN(C(=O)c2ccc(CS(=O)c3ccc(Cl)cc3)o2)CC1 (stereo not given) | inactive
